1 substance from paper PMC8326979 can be followed below.

Chains of the proteins cited; added tags and fusions are not shown.
UniProt P08106: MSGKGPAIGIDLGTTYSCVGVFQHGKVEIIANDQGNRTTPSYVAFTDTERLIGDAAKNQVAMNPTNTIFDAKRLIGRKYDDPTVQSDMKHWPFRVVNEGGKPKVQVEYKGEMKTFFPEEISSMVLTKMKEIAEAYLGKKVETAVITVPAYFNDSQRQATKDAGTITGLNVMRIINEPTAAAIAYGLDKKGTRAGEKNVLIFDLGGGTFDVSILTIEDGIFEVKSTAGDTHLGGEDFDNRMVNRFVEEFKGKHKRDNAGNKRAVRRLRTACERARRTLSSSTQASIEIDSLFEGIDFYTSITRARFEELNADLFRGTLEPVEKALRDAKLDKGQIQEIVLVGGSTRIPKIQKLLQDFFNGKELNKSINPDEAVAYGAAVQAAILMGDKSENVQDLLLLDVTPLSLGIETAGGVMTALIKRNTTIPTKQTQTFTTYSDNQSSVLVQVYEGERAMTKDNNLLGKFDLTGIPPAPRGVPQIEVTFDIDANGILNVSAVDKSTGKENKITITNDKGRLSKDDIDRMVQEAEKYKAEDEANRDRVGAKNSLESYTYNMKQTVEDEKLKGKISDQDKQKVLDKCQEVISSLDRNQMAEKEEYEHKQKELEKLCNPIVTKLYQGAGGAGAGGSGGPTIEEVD
UniProt P51913: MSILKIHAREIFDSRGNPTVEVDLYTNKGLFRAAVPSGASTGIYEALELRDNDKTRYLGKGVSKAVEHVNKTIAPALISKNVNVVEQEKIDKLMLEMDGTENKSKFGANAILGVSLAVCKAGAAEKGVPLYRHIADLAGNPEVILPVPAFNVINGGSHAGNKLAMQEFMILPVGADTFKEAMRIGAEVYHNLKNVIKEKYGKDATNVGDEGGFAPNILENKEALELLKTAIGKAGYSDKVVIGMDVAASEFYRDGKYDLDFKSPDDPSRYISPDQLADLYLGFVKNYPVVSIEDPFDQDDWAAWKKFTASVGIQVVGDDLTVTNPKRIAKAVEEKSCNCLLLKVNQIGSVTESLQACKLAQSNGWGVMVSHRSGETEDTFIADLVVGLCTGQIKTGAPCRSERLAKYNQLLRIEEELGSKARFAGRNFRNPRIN

No constants are given. Whether binding was seen depends on the method and setting. In cells and extracts the contact can be indirect. Some entries that bind do so weakly or less than the wild type.

This test concerns the target 70-kDa heat shock protein (HSP70) (chicken (endogenous in chicken embryo hepatocytes)) (UniProt P08106). In words: co-IP; anti-HSP70 antibody on protein A + G agarose beads, pre-cleared chicken hepatocyte lysate after heat treatment, rotated overnight at 4°C; Western blot; non-specific rabbit IgG as negative control.

Regarding “α-enolase (ENO1) (from UniProt P51913 1-434)”, the binding result was “binds”.
